Measurements from the supplement of paper PMC12889115.
Some of the results follow. Values are raw readings; no control value is given beside them.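 Primary screen: polymyxin B was added at a level permeabilizing Salmonella outer membranes while sparing inner membranes. DMSO wells, both with and without polymyxin B, established maximum growth. Plate-to-plate variation meant each plate was ranked on its own, and the lowest-OD600 compounds were selected as hits.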

Test system: Salmonella enterica serovar Typhimurium SL1344
Test: bacterial growth OD600 after 18 h with compound and polymyxin B; higher = more bacterial growth (less inhibition)
Details: 50 µM, Mueller-Hinton broth

| SMILES | bacterial growth OD600 (polymyxin B 1 µg/mL) | bacterial growth OD600 (polymyxin B 0.75 µg/mL) |
| --- | --- | --- |
| Cc1cc(Cl)ccc1C(=O)C1CCCN(C(=O)CCc2ccc3c(c2)OCO3)C1 (stereo not given) | 0.647 |  |
| O=C(CCc1cccc(Cl)c1)NC1CCCN(CCc2ccccc2)C1 (stereo not given) | 1.24 |  |
| COC(=O)C1CCCCN1C(=O)C1CCCN(c2nc(C)c3ccc(S(C)(=O)=O)cc3n2)C1 (stereo not given) |  | 0.799 |
| Cc1nc(-c2ccncc2)ncc1C(C)NC1CCCCC1 (stereo not given) |  | 0.788 |
| CCN1CCN(C2(C(=O)N3CCC(COC)C3)Cc3ccccc3C2)CC1 (stereo not given) |  | 0.785 |
| COc1ccc(F)c(CN2CCCC3(CCN(C(=O)NC(C)C)C3)C2=O)c1 (stereo not given) | 0.931 |  |
| O=C(Cc1ccccc1)N1CCOc2c(cc(-c3cccnc3)cc2OCCc2cccs2)C1 |  | 0.01 |
| COc1ccccc1CCC(=O)Nc1cnn(CC(=O)N2CCC(C(O)c3cccs3)CC2)c1 (stereo not given) |  | 0.864 |
| COC1CCCN(C(=O)CC2(c3ccc(-c4ccccc4)cc3)CC(=O)N(C)C2=O)C1 (stereo not given) |  | 0.949 |
| CCCn1ncc(CN2CCN(Cc3cccc(OC)c3)C(CCO)C2)c1C (stereo not given) | 0.829 |  |
| CSc1ccccc1C(=O)N1CCC(C2(CCC(C)C)NC(=O)N(Cc3ccccn3)C2=O)CC1 (stereo not given) |  | 0.914 |
| Cc1ccc(CNC(=O)C2CCCN(C3CCN(C(=O)C4CC4)CC3)C2)s1 (stereo not given) | 0.88 |  |
| COc1cccc(CCC2CCCN(C(=O)CCn3cccn3)C2)c1 (stereo not given) |  | 0.798 |
| COCCN1C(=O)NC(Cc2ccc(F)cc2)(C2CCN(C(=O)c3ccc(C)cc3)CC2)C1=O (stereo not given) |  | 0.798 |
| NC(=O)[C@H](Cc1ccccc1)NC(=O)CC1c2ccccc2CCc2ccccc21 |  | 0.526 |
| Cc1nonc1CN(C)C(=O)c1cc(COc2cccc(C(F)(F)F)c2)[nH]n1 | 1.2 |  |
| O=C(CCC1(Cc2ccccc2)CCC(=O)N1)NC1CCCc2ccccc21 (stereo not given) |  | 0.98 |
| CN(C)c1cccc(C(=O)N2CCC3(CCCN(CC4CC4)C3)C2)c1 (stereo not given) | 1.07 |  |
| CCCNC(=O)N1CCC(N2CCCC(C(=O)NCc3ccccn3)C2)CC1 (stereo not given) | 0.99 |  |
| CO[C@H]1[C@H](NC(=O)c2ccncc2)c2ccccc2C12CCN(C(=O)C1(c3ccccc3)CC1)CC2 |  | 0.999 |
| Cc1ncc2c(c1CNC(=O)c1ccccc1F)CCN(C(=O)CCn1c(=O)[nH]c3ccccc31)C2 |  | 0.738 |
| CCS(=O)(=O)N1CCCC(CCc2ccccc2)C1 (stereo not given) |  | 0.266 |
| COc1cccc(CCC(=O)N2CCCC(CCC(=O)NCc3ccccc3F)C2)c1 (stereo not given) | 1.06 |  |
| O=C(c1ccc(N2CC[C@H](O)C2)nc1)N1CCC(CCc2ccccc2)CC1 | 0.847 |  |
| COc1ccc2cc(C(=O)C3CCCN(C(=O)c4cc5ccccc5oc4=O)C3)ccc2c1 (stereo not given) | 0.534 |  |
| CSCC(=O)NCc1cccnc1N1CCN(c2ccccc2C)CC1 | 0.011 |  |
| Cc1ccc(-c2cnnc(N3CCCC(OCc4ccccn4)C3)n2)o1 (stereo not given) |  | 0.813 |
| CCN(CC1CCCN(CCc2cccc(F)c2)C1)C(=O)C1CC1 (stereo not given) | 0.862 |  |
| O=C(c1ccc2c3c(cccc13)CC2)C1CCCN(C(=O)c2ccc[n+]([O-])c2)C1 (stereo not given) | 0.951 |  |
| COc1ccc(CCCNC(=O)c2ccc(N3CCN(C)C(=O)[C@@H]3C)nc2)cc1 |  | 0.834 |

Exported with bars between the fields: part of the list above
SMILES | bacterial growth OD600 (polymyxin B 1 µg/mL) | bacterial growth OD600 (polymyxin B 0.75 µg/mL)
Cc1ccc(CNC(=O)C2CCCN(C3CCN(C(=O)C4CC4)CC3)C2)s1 (stereo not given) | 0.88 | 
COCCN1C(=O)NC(Cc2ccc(F)cc2)(C2CCN(C(=O)c3ccc(C)cc3)CC2)C1=O (stereo not given) |  | 0.798
